Patent US7557111B2, “Substituted thieno[3,2-d]pyrimidines as CRF receptor antagonists” (Taisho Pharmaceutical Co., Ltd., priority 2004, dated 2009)
Some of these results come from one statement about several compounds together.

What follows are molecules tested against T1, CRF receptor (Macaca mulatta, UniProt Q76LL8) (assay: CRF receptor binding test (125I-CRF, monkey amygdala membranes)). Conditions: read-out: IC50 (concentration of the test drug at which binding of 125I-CRF is inhibited by 50%), 0.2 nM 125I-CRF, 25° C., 2 hours.
T1 sequence (Q76LL8 24-415): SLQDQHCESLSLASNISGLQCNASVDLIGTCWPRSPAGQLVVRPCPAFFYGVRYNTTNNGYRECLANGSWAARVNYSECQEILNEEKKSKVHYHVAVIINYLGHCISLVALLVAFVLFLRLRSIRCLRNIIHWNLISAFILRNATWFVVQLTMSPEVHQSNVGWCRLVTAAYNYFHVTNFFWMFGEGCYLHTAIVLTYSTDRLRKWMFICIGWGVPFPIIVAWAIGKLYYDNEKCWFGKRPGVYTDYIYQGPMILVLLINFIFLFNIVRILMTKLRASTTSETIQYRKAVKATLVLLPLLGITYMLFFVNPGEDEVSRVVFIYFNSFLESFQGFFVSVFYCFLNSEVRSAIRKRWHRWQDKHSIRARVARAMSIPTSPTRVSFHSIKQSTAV

Row | SMILES | IC50
1 | Cc1cc(N2CCC(CO)CC2)c2scc(-c3ccc(Cl)cc3Cl)c2n1 [1-012, {1-[3-(2,4-dichloro-phenyl)-5-methyl-thieno[3,2-b]pyridin-7-yl]-piperidin-4-yl}-methanol] | ≤ 0.1 µM
2 | Cc1cc(C)c(-c2csc3c(N4CCC(CO)CC4)cc(C)nc23)c(C)c1 [1-013, {1-[5-methyl-3-(2,4,6-trimethyl-phenyl)-thieno[3,2-b]pyridin-7-yl]-piperidin-4-yl}-methanol] | ≤ 0.1 µM
3 | Cc1cc(N2CCC(CO)CC2)c2scc(-c3ccc(Br)cc3Br)c2n1 [1-016, {1-[3-(2,4-dibromo-phenyl)-5-methyl-thieno[3,2-b]pyridin-7-yl]-piperidin-4-yl}-methanol] | ≤ 0.1 µM
4 | Cc1cc(N2CCC(CO)CC2)c2scc(-c3c(Cl)cc(Cl)cc3Cl)c2n1 [1-017, {1-[5-methyl-3-(2,4,6-trichloro-phenyl)-thieno[3,2-b]pyridin-7-yl]-piperidin-4-yl}-methanol] | ≤ 0.1 µM
5 | Cc1cc(N2CCC(CCO)CC2)c2scc(-c3ccc(Br)cc3Br)c2n1 [1-020, 2-{1-[3-(2,4-dibromo-phenyl)-5-methyl-thieno[3,2-b]pyridin-7-yl]-piperidin-4-yl}-ethanol] | ≤ 0.1 µM
6 | Cc1cc(N2CCC(CCO)CC2)c2scc(-c3c(Cl)cc(Cl)cc3Cl)c2n1 [1-021, 2-{1-[5-methyl-3-(2,4,6-trichloro-phenyl)-thieno[3,2-b]pyridin-7-yl]-piperidin-4-yl}-ethanol] | ≤ 0.1 µM
7 | Cc1cc(C)c(-c2csc3c(N4CCCC(C#N)C4)cc(C)nc23)c(C)c1 (stereo not drawn) [1-024, 1-[5-methyl-3-(2,4,6-trimethyl-phenyl)-thieno[3,2-b]pyridin-7-yl]-piperidine-3-carbonitrile] | ≤ 0.1 µM
8 | Cc1cc(N2CCC(CC#N)CC2)c2scc(-c3ccc(Br)cc3Br)c2n1 [1-027, {1-[3-(2,4-dibromo-phenyl)-5-methyl-thieno[3,2-b]pyridin-7-yl]-piperidin-4-yl}-acetonitrile] | ≤ 0.1 µM
9 | Cc1cc(N2CCC(CC#N)CC2)c2scc(-c3c(Cl)cc(Cl)cc3Cl)c2n1 [1-028, {1-[5-methyl-3-(2,4,6-trichloro-phenyl)-thieno[3,2-b]pyridin-7-yl]-piperidin-4-yl}-acetonitrile] | ≤ 0.1 µM
